Measured values taken from article PMC11232132.
No constants are given. Whether binding was seen depends on the method and setting. In cells and extracts the contact can be indirect. Some results given as binding are weak or reduced against the parent protein; the word gives no strength.

Amino acid sequences for entries named in this document (tags omitted). A change or cut given only in a name is not applied to a line headed by its entry.
UniProt Q01094: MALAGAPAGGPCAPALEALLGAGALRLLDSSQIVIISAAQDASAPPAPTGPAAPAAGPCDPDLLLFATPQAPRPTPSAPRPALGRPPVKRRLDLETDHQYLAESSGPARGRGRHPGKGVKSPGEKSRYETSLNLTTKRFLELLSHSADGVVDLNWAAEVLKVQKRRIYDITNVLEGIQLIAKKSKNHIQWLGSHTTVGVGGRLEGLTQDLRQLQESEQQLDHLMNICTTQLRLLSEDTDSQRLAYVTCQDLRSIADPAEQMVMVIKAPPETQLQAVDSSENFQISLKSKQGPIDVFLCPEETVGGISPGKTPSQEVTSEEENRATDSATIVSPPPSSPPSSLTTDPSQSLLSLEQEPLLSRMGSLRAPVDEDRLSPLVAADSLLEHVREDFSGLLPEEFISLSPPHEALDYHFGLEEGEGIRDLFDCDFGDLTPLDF
UniProt Q96FF9: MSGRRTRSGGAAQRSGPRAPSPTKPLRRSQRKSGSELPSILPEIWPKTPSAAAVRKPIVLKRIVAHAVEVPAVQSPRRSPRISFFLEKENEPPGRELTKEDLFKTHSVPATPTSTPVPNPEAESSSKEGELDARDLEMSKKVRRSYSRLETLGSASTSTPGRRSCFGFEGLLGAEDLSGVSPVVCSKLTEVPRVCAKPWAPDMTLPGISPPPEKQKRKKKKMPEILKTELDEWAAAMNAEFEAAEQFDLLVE

Target: E2F transcription factor 1 (E2F1) (human (endogenous in MDA-MB-231)) (UniProt Q01094)
Test: co-IP; MDA-MB-231 cell lysates in RIPA buffer, 1.0 mg total protein; anti-E2F1 at 4 °C overnight, then 20 µL agarose beads at 4 °C for 2 h; Western blot

Q: With “Cell division cycle associated 5 (CDCA5) (from UniProt Q96FF9 1-252)” as the substance, how does the binding read?
A: binds
